The record followed here is article PMC4924727.

Results are given in words; binding and its absence hold for the method and conditions named. Binding seen in cells or lysates may run through a third protein. Binding calls can cover weak binding; strength is not graded here.

This test concerns the target endogenous Mgl-1 (MDCK cells) (canine (endogenous in MDCK)). The test is described as follows: co-IP; endogenous proteins of MDCK cell lysates; immunoprecipitation with anti-USP11 or anti-Mgl-1 antibody; also in cells transfected with RanBPM shRNA #1 and #2 (interaction decreased).

B1: endogenous USP11 (MDCK cells) (enzyme, UniProt Q01988 1-445)
chain: NSARADLCVALAKHTGMSPERMMVADVFSHRFYKIYQLEESLSSILDRDDIFIYEVSGRSAIGENSREDVVLPIYLRERTPARDYNNSYYGLMLFGHPLLVSVPRDRLSWDALYHILLYRLSRYVTRPSSDDEDDGDEKDIEDKDNIPKPGHVAGASSQDSGAGSGGAQLWSRRRKPAPVDNSPGPSHWPQRARRKHLFTLQTVNSNGTSDRSTFNEDTHAQPYIAIDWEPEMKKRYYDEVEAEGYVKHDCVGYVLKKAPVRLQECIELFTTVETLEKENPWFCPTCKQHQLATKKLDLWMLPETLIIHLKRFSYTKFSREKLDTLVEFPIRDLDFSEFVIKPQNESAPELYKYDLIAVSNHYGGLRDGHYTTFACNKDSGQSDYFDDNSVSPVTENQIESKAAYVLFYQRQDVARRLQPQPSSSDPPASPACGSPPNSEFMDVN
Turning to B1, the binding entry is on record as “binds”.
